## Primary screen of a compound library

Protein sequences, listed by entry. Tags and fused reporters are not part of them. Residues count along the entry.
UniProt A4I591, 1-473: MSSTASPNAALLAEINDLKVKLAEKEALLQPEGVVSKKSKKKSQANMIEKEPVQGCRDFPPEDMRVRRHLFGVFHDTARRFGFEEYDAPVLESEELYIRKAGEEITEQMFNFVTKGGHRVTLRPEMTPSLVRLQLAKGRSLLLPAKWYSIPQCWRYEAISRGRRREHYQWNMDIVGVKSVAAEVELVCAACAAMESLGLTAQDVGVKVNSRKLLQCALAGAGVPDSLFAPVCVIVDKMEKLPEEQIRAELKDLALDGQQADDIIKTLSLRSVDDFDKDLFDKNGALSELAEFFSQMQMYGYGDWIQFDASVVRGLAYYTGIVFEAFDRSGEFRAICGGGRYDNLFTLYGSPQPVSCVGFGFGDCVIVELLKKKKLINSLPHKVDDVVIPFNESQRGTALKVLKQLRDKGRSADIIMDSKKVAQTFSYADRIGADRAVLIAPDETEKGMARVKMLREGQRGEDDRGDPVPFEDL

From ChEMBL document CHEMBL3988442, “University of Dundee, Small-Polar-MMV Screening Library” (2021).

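Enzyme assay of histidyl-tRNA synthetase; the read-out is not stated. Target: Histidine-tRNA ligase, Leishmania infantum (UniProt A4I591). Concentration: 30 µM. The record gives no direction; compounds that gave an IC50 in retests scored well above the rest, so higher reads as stronger inhibition. The assay is labelled LdHisRS but filed under L. infantum. Size under these conditions: about 69,000 compounds, about 410 of them at 50% or above in at least one test.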

Results are given as percent effect. How 0% and 100% were set is not recorded. Most values in the screen are low, and negative values occur. Compounds were drawn at random from those tested, without regard to their results.

| # | Compound | effect |
|---|---|---|
| 1 | `Cc1cc(-c2cnc(N3CCC(O)CC3)nc2C(C)C)on1` | 4.196% |
| 2 | `Cc1ccc(C(=O)N2CCC3(CC2)COC(COc2ccccn2)C3)o1` (centres undefined) | 21.57% |
| 3 | `CCCN1CCc2nc(N3CCOCC3)nc(NC(C)C)c2C1` | 17% |
| 4 | `Nc1cc(C(=O)NCC2CCN(CCc3ccccc3)C2)ccn1` (centres undefined) | 16% |
| 5 | `NC(=O)CN1CCC(C(=O)NCCc2nc(-c3ccccc3)cs2)CC1` | 15.62% |
| 6 | `CC(=O)NC1CCCN(C(=O)NCc2cccnc2-n2cccn2)C1` (centres undefined) | 17.57% |
| 7 | `CC(C)(C)OC(=O)NC1CCCN(Cc2cccc(O)c2)C1` (centres undefined) | -2.564% |
| 8 | `O=C(NCc1nnc2n1CCCCC2)N1CCc2ccccc2C1` | 11.97% |
| 9 | `COCC(=O)NC(c1ccccc1)c1ccc2c(c1)CCCO2` (centres undefined) | -8.333% |
| 10 | `Cc1nn(C)cc1CN(C)C(=O)c1ccccn1` | 12.39% |
| 11 | `CN(C)c1ncccc1CNS(=O)(=O)c1ccccc1F` | 12.5% |
| 12 | `Cc1cnc(N2CCCn3c(nnc3CN(C)C(C)C)C2)nc1` | 15.09% |
| 13 | `CCCC1CCCN(C(=O)Nc2ccnc(C(=O)N(C)C)c2)CC1` (centres undefined) | 16.44% |
| 14 | `O=C(CN1CCCC(Cn2cncn2)C1)NCCc1cccs1` (centres undefined) | 6.897% |
| 15 | `Cn1cc(CN2CCC(c3ncc(Cl)cc3S(C)(=O)=O)CC2)cn1` | 11.19% |
| 16 | `Cc1cccc(CN2C(=O)CCC23CCN(C(=O)NC(C)C)CC3)n1` | 8.257% |
| 17 | `Cc1ccc(F)cc1S(=O)(=O)N1C[C@@H](C)[C@@](C)(O)C1` | 11.43% |
| 18 | `O=C(Nc1cccnc1)[C@H]1CN(Cc2ccccn2)C[C@H]2OCC[C@@H]12` | 22% |
| 19 | `CS(=O)(=O)N1CCC2(CCN(C(=O)c3cccnc3)CC2)C1` | 12.9% |
| 20 | `COc1ccc(C(=O)N2CC(=O)N(C3CCC3)CC(O)C2)c(OC)c1` (centres undefined) | 8.163% |
| 21 | `CCNC(=O)N1CCC(c2ccccc2)C1` (centres undefined) | 26.97% |
| 22 | `CCn1cc(CNC(=O)CCc2nnc(-c3ccc(C)s3)o2)cn1` | -2.941% |
| 23 | `O=C(Cc1ccc2c(c1)CCC2)NCCNc1cnccn1` | 14.91% |
| 24 | `CCN(Cc1ccoc1)C(=O)c1ccc(C)c(S(N)(=O)=O)c1` | 0% |
| 25 | `Cc1nnc(CN(Cc2ccccc2Br)C2CC2)o1` | 9.524% |
| 26 | `CCN(CCN1CCCCCC1)C(=O)COc1cccnc1` | -2.857% |
| 27 | `CS(=O)(=O)N1CC(c2ncn3ccccc23)C1` | 17.65% |
| 28 | `c1ccc(-c2cc(CNCCN3CCOCC3)c3nnnn3c2)cc1` | 9.474% |
| 29 | `C=C(C)CSc1nnc(CCNC(=O)OC(C)(C)C)o1` | 5.263% |
| 30 | `Cc1cnccc1Cn1ccnc1C1CCOC1` (centres undefined) | 25.37% |
| 31 | `Cn1nccc1C(=O)N1CCCC1c1[nH]ncc1C(N)=O` (centres undefined) | 5.263% |
| 32 | `Cc1ccc(Cl)c2c1C1(NC(=O)c3cccnc3N1)C(=O)N2` (centres undefined) | 10.26% |
| 33 | `O=C(Nc1ccc(Cl)cn1)c1cncc(C2CCNCC2)n1` | 22.54% |
| 34 | `O=C(c1ccccc1)N1CC[C@H]2C[C@H](c3nnc(C4CC4)o3)O[C@@H]2C1` | 0.9091% |
| 35 | `COc1c(C)cc(C(C(=O)O)N(C)Cc2ccn[nH]2)cc1C` (centres undefined) | 0% |
| 36 | `CN(C)C(=O)COC[C@@]12CCC[C@@H]1CNC2` | 15.38% |
| 37 | `Cc1cnc(N2CCC3(CCCN(c4ncc(F)cn4)C3)C2)nc1` (centres undefined) | -69.15% |
| 38 | `O=C(NCCNC1CCN(c2nccs2)CC1)c1cccs1` | 6.494% |
| 39 | `CCc1c(C)[nH]c(C2(N)CCCC2)nc1=O` | 32.74% |
| 40 | `CS(=O)(=O)NCC(=O)NC1CCc2nccn2C1` (centres undefined) | 2.913% |
| 41 | `c1csc(-c2nc(CNC3CCc4ncnn4C3)co2)c1` (centres undefined) | -8.219% |
| 42 | `COc1ccc(CNC(=O)C2=NN(c3ccc(C)cc3)C(=O)CN2)cc1` | 19.67% |
| 43 | `CCS(=O)(=O)NC(CCSC)C(=O)Nc1cccc(C)c1C` (centres undefined) | 22.22% |
| 44 | `COCC(=O)N1CCC2(COCc3cnc(NCc4ccco4)nc32)C1` (centres undefined) | 16.67% |
| 45 | `COc1ccc(CN(C)[C@@H]2CN(C(=O)c3cccn3C)C[C@H]2O)cc1` | 3.125% |
| 46 | `Cc1cc(C)c(CNC(=O)N(C)Cc2cccc(C#N)c2)c(=O)[nH]1` | 6.14% |
| 47 | `NC(=O)C1CCCN1C(=O)c1cccc2c1OCO2` (centres undefined) | 15.04% |
| 48 | `CN1CCC(c2nc3ccc(-c4ccccc4)cn3n2)CC1` | 8.065% |
| 49 | `Cc1nc(C2CCCN2C(=O)c2ccc(=O)n(C)n2)no1` (centres undefined) | 11.67% |
| 50 | `CCNC(=O)[C@@H]1C[C@@H](N)CN1C(=O)c1cc2ccccc2[nH]1` | 10.62% |
| 51 | `COc1ccc(CNC(=O)CCSCc2csc(C)n2)cn1` | 5.357% |
| 52 | `Cc1cc(C(=O)N2CCCCC2)ccc1NS(C)(=O)=O` | 4% |
| 53 | `Cn1ccnc1CN1C[C@H](N2CCOCC2)[C@@H]2OCCC[C@@H]21` | 16.24% |
| 54 | `COCc1csc(NC(=O)NCc2ccsc2)n1` | 14.29% |
| 55 | `Cn1cccc1C(=O)N1CCCC2(CCN(CCN3CCCC3)C2=O)C1` (centres undefined) | 8.491% |
| 56 | `c1nc2c(c(N3CCOC(Cn4cncn4)C3)n1)CCC2` (centres undefined) | 19.74% |
| 57 | `CN1CCN(CCOc2ccc(NC(=O)c3ccncc3)cc2)CC1` | 9.326% |
| 58 | `CC(C)CN1CCc2[nH]cnc2C12CCN(C(=O)c1cccnc1)CC2` | 2.913% |
| 59 | `CCC[C@H]1CN(S(=O)(=O)c2cc(C)ccc2C)C[C@@H]1N` | 12.9% |
| 60 | `COc1cccc(CC2CCCN2Cc2nccn2C)c1` (centres undefined) | 9.333% |
| 61 | `CCN1CCN(C(=O)NCc2cccnc2-n2cccn2)CC1` | 0% |
| 62 | `Cc1ccc2nc(CN3CCC(O)(Cn4ccnc4)CC3)cc(O)c2c1` | 7.895% |
| 63 | `COc1ccc(C(C)N(C)Cc2c(C(C)C)[nH]c3ncccc23)cc1` (centres undefined) | 2.685% |
| 64 | `CS(=O)(=O)N1C[C@H]2CCCN(Cc3ccsc3)[C@H]2C1` | 1.754% |
| 65 | `N#Cc1ccc(N2CCN(C(=O)c3cc(C4CC4)[nH]n3)CC2)c(F)c1` | 18.46% |
| 66 | `COc1ccc2c(c1)c(-c1nc(N(C)C)ncc1CN)cn2C` | 1.429% |
| 67 | `COC(=O)c1ccc(CN2CCC(c3noc(C)n3)CC2)s1` | 18.09% |
| 68 | `NC(=O)c1cnc(NCC(=O)NCc2ccccc2)c(Cl)c1` | 7.563% |
| 69 | `CCN(CC)CCCNCc1cc2cccc(C)c2[nH]c1=O` | 14.18% |
| 70 | `Cc1ccc(Oc2cc(CN)ccn2)cc1C` | 13.25% |
| 71 | `CCNC(=O)CN1CCC(OCC2CCCO2)CC1` (centres undefined) | -17.12% |
| 72 | `COc1ccccc1N1CCC(CNCc2cccc(OC)c2OC)C1` (centres undefined) | 59.52% |
| 73 | `CCOC(=O)N1CCN(C(=O)CCn2ccc3c(OC)cccc32)CC1` | 0% |
| 74 | `COc1ccc(C)cc1CN(C)CC(=O)NC1(C)CCS(=O)(=O)C1` (centres undefined) | 6.897% |
| 75 | `CC(C)OCCC(=O)N(C)c1ccc(F)c(Cl)c1` | -1.408% |
| 76 | `CCc1nnc(Nc2cccc(C3CCN(C(=O)CNC)CC3)n2)s1` | 14% |
| 77 | `C[C@@H]1CN(C(=O)CCc2nncn2C)C[C@@]1(O)C1CCC1` | -2.74% |

Once more, the final 9:

{"compound": "CCN(CC)CCCNCc1cc2cccc(C)c2[nH]c1=O", "effect": 14.18}
{"compound": "Cc1ccc(Oc2cc(CN)ccn2)cc1C", "effect": 13.25}
{"compound": "CCNC(=O)CN1CCC(OCC2CCCO2)CC1", "stereo": "centres undefined", "effect": -17.12}
{"compound": "COc1ccccc1N1CCC(CNCc2cccc(OC)c2OC)C1", "stereo": "centres undefined", "effect": 59.52}
{"compound": "CCOC(=O)N1CCN(C(=O)CCn2ccc3c(OC)cccc32)CC1", "effect": 0}
{"compound": "COc1ccc(C)cc1CN(C)CC(=O)NC1(C)CCS(=O)(=O)C1", "stereo": "centres undefined", "effect": 6.897}
{"compound": "CC(C)OCCC(=O)N(C)c1ccc(F)c(Cl)c1", "effect": -1.408}
{"compound": "CCc1nnc(Nc2cccc(C3CCN(C(=O)CNC)CC3)n2)s1", "effect": 14}
{"compound": "C[C@@H]1CN(C(=O)CCc2nncn2C)C[C@@]1(O)C1CCC1", "effect": -2.74}